Measurements: article PMC11705640, “Tubulointerstitial nephritis antigen-like 1 promotes the progression of liver fibrosis after HCV eradication with direct-acting antivirals” (International Journal of Biological Sciences, 2025)

By UniProt entry, the sequences of proteins in these tests, tags left out. Where a name states a change or a piece, a line headed by the entry shows the natural chain unless it says otherwise.
UniProt P01127: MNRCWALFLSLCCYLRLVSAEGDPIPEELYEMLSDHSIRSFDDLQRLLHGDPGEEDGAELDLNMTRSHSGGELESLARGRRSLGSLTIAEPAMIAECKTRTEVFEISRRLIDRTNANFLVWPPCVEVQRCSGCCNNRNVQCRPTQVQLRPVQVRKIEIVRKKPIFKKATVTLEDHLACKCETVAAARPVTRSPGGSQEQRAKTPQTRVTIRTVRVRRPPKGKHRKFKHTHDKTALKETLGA

Legend:
[1] = target: T1, TINAGL1-Flag (full-length, Flag-tagged human TINAGL1 in pcDNA3.1+) (human) (UniProt Q9GZM7); experiment: co-IP; Huh7.5 cells co-transfected with TINAGL1-Flag and PDGF-BB-HA; IP lysis buffer; HA or Flag magnetic beads overnight at 4°C; Western blot with anti-HA and anti-Flag
T1 sequence: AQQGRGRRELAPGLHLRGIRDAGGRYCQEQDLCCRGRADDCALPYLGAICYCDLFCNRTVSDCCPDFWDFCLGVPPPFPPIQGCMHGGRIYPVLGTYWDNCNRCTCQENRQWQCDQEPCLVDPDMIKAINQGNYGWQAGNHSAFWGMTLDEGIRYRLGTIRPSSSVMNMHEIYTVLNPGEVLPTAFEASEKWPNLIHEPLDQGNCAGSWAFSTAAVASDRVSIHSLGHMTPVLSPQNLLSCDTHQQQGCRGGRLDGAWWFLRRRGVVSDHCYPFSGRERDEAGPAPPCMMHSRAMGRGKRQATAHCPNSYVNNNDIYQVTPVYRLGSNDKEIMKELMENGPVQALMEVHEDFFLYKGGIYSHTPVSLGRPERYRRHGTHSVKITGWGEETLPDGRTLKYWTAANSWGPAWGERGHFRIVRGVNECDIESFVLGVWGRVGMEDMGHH

[2] = target: T1, TINAGL1-Flag (full-length, Flag-tagged human TINAGL1 in pcDNA3.1+) (human); experiment: co-IP; HEK293T cells co-transfected with TINAGL1-Flag and PDGF-BB-HA; IP lysis buffer; HA or Flag magnetic beads overnight at 4°C; Western blot with anti-HA and anti-Flag

PDGF-BB-HA (full-length human PDGFB cDNA with HA-tag) (from UniProt P01127) (ligand)
binding [1]: binds
binding [2]: binds

These are yes or no findings as the source states them, for the method shown. In cells and extracts the contact can be indirect. Binding calls can cover weak binding; strength is not graded here. Sequences can lack the tags named with a protein.
